Two molecules from publication PMC10899662, “TopBP1 utilises a bipartite GINS binding mode to support genome replication” (Nature Communications, 2024) can be followed below.

Sequences of proteins named here, by UniProt entry; tags and fusion partners are left off.
UniProt Q92547: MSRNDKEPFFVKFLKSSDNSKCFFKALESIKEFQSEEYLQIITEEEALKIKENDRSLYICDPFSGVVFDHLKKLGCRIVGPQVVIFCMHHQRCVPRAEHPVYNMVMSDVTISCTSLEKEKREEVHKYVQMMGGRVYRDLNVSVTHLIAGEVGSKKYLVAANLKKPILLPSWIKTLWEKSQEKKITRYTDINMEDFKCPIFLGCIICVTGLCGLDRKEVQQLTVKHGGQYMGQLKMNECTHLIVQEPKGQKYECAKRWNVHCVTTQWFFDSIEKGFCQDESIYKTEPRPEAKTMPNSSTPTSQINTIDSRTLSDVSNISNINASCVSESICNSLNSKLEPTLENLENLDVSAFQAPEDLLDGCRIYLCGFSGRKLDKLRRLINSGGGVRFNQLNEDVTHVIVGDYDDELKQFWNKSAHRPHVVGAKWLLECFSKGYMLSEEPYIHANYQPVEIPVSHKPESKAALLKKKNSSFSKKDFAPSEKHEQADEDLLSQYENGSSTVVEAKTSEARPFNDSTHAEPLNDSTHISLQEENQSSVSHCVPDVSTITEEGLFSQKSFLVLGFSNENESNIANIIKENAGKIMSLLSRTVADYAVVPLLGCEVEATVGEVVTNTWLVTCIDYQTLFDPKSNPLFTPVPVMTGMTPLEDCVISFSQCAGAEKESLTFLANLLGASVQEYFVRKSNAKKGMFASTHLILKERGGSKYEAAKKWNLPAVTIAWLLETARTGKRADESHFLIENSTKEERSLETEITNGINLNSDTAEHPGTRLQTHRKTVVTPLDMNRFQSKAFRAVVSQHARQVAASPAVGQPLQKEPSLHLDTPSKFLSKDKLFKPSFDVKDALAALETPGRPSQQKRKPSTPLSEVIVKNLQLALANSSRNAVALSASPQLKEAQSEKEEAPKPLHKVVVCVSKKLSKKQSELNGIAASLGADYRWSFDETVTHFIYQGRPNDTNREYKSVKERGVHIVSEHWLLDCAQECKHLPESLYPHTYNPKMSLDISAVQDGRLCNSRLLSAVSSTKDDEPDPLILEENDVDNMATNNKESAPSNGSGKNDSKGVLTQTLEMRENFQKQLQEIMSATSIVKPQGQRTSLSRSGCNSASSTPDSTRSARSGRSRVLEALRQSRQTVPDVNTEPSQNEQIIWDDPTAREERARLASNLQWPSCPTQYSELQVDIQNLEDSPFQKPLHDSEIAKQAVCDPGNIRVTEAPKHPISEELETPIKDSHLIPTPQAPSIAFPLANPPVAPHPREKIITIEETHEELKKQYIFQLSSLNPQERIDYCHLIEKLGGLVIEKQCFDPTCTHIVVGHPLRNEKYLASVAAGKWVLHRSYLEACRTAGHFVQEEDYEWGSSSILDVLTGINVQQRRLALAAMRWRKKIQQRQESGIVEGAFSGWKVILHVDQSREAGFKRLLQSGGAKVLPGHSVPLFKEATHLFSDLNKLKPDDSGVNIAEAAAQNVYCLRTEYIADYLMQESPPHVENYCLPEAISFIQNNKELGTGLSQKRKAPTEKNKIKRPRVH

No constants are given. Whether binding was seen depends on the method and setting. In cells and extracts the contact can be indirect. Here binding means that the protein was enriched with, or labelled near, the bait; the list need not be complete.

In the assay the target is APEX2-tagged TopBP1 (human) (UniProt Q92547). Kind of assay: proximity labelling; APEX2-tagged TopBP1 in 293 Flip-In or 293T cells, biotin phenol and H2O2, streptavidin pulldown and mass spectrometry; three experiments.

B1: Psf3 (endogenous) (protein, UniProt Q9BRX5 1-216)
chain: MSEAYFRVESGALGPEENFLSLDDILMSHEKLPVRTETAMPRLGAFFLERSAGAETDNAVPQGSKLELPLWLAKGLFDNKRRILSVELPKIYQEGWRTVFSADPNVVDLHKMGPHFYGFGSQLLHFDSPENADISQSLLQTFIGRFRRIMDSSQNAYNEDTSALVARLDEMERGLFQTGQKGLNDFQCWEKGQASQITASNLVQNYKKRKFTDMED
Turning to B1, the binding result is recorded as “binds”.

B2: Psf2 (endogenous) (protein, UniProt Q9Y248 1-185)
chain: MDAAEVEFLAEKELVTIIPNFSLDKIYLIGGDLGPFNPGLPVEVPLWLAINLKQRQKCRLLPPEWMDVEKLEKMRDHERKEETFTPMPSPYYMELTKLLLNHASDNIPKADEIRTLVKDMWDTRIAKLRVSADSFVRQQEAHAKLDNLTLMEINTSGTFLTQALNHMYKLRTNLQPLESTQSQDF
Regarding B2, the binding result is on record as “binds”.
